# Assay results published in patent publication US12582616B2, “Molecular targets for modulation of dissociative and associative states” (The Board of Trustees of the Leland Stanford Junior …, priority 2020, dated 2026).
# Experiments:
# [1] = tested on: retrosplenial cortex (RSP); experiment: Retrosplenial gene disruption (HCN1, GRIN1) and fiber photometry; format: in vivo, mouse
# Procedure: A 405 nm and 470 nm LED illumination (Thorlabs) was combined (425 nm longpass, Thorlabs DMLP425) and coupled into a fiber optic patch cord (400 μm diameter, 0.48 NA, Doric Lenses) using a longpass dichroic (505 nm, Thorlabs DMLP505) and a fixed-focused coupler/collimator with a standard FC connector (F240FC-A, NA 0.51, f=7.9 mm)^47,48. Each illumination channel was frequency modulated using the sync output from a lock-in amplifier (SR810 DSP, Stanford Research Systems).
# Analysis was performed using custom MATLAB (MathWorks) scripts. Widefield imaging videos were registered to a 2D top-projection atlas generated from the annotated Allen Brain Atlas volume, version CCFv2, in MATLAB (MathWorks), using an affine transformation computed from four manually selected control points. Each video was DF/F normalized, using the median for each pixel over the entire time series as F. The 410 nm channel was then temporally smoothed using a moving average (width=400 ms). The smoothed 410 nm DF/F signal for each pixel was regressed onto the 488 nm DF/F signal for the corresponding pixel, and the regression coefficients were used to scale the 410 nm channel to the 488 nm channel. This scaled 410 nm DF/F signal was then subtracted from the 488 nm DF/F signal to produce a normalized signal for each pixel. For quantification, activity traces were extracted from points centered in five cortical regions (visual, somatosensory, parietal, motor, retrosplenial) on the left hemisphere of the brain. The video data was Gaussian smoothed spatially (radius=2 pixels). Similarly, for fiber photometry recordings, the 410 nm signal was regressed onto the 488 nm signal, the 410 nm signal was scaled by the regression coefficients, and then subtracted from the 488 nm signal.
# Stereotaxic Surgery: Adult male and female HCN1^f/f, NR1^f/f, or wildtype C57/BI6 were injected bilaterally in two retrosplenial locations (AP −3.1 and −3.4, ML+/−0.5, DV −0.5) with 1 uL of AAV8-Ef1 a-mCherry-IRES-Cre (titer 5E11) and AAVdj-Ef1a-DIO-GCaMP6m (titer 1E13). A 400-micron optical fiber was implanted over one injection location. […]
# [2] = tested on: retrosplenial cortex (RSP); experiment: Two-photon imaging of retrosplenial cortex; format: in vivo, mouse
# Procedure: Mice were anesthetized with isoflurane and the skull above retrosplenial cortex was removed and replaced with a 7 mm circular glass coverslip. For layer 1 experiments, Thy1GcaMP6s mice were used. For layer 2/3 experiments, Cux2-CreER; Ai148 mice were used (tamoxifen dissolved in corn oil was injected intraperitoneally at 0.1 mg/g at least 2 weeks prior to imaging). For layer 5 experiments, Rbp4-Cre mice were injected locally in retrosplenial with 800 nL AAVdj-Ef1a-DIO-GCaMP6f (titer 5E12) at stereotactic coordinates (−3AP, 0.5ML, −0.6DV). Mice were given >=1 week to recover before imaging. Awake, head-fixed imaging was performed on a standard two photon microscope (NeuroLabWare, Los Angeles, CA). A 16x 0.8 NA Nikon objective was immersed in clear ultrasound gel for imaging (Aquasonic, Parker Laboratories); frame rate of 30 Hz. […]
# Two-photon tiff stack videos were registered to the average image using the TurboReg ImageJ plug-in using rigid body transformations. […] The resulting traces were detrended and z-scored. The full frame fluorescence (used for quantifying layer 1 neuropil oscillations) was computed by summing all of the pixels in each frame on each time point, and then computing DF/F the same way, with no neuropil subtraction step. […]
smiles,measurement,setting,value
CNC1(c2ccccc2Cl)CCCCC1=O (centres unmarked) [ketamine],"Hedge's g effect-size, oscillation-power pre/post ketamine",[1]; GRIN1 knockout,2.03
same,"Hedge's g effect-size, oscillation-power pre/post ketamine",[1]; HCN1 knockout,1.02
same,"Hedge's g effect-size, oscillation-power pre/post ketamine",[1]; WT,3.22
same,"Hedge's g effect-size, mean 1-3 Hz power before/after ketamine across cells",[2]; layer 2/3,−0.46
same,"Hedge's g effect-size, mean 1-3 Hz power before/after ketamine across cells",[2]; layer 5,3.16
